The values that follow come from article PMC7819943, “Rice protein-binding microarrays: a tool to detect cis-acting elements near promoter regions in rice”.

Amino acid sequences for entries named in this document (tags omitted).
UniProt Q0JBA9, entry or part of it: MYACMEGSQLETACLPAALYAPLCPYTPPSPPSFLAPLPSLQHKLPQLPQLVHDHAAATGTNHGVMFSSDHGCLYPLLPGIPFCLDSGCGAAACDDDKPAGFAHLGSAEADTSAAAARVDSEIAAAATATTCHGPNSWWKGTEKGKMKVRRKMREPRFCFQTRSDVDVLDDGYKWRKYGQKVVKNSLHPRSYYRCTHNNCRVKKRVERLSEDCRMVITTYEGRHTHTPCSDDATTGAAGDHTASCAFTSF

Some of the results follow.

In the experiment the target is OsWRKY34 (Oryza sativa, UniProt Q0JBA9 1-250). Put plainly: protein-binding microarray (RPBM); PBS, 2% BSA, 51.3 ng/ul salmon testes DNA, 50 uM zinc acetate, 200 nM TF, 25 C, 1 h; high values mean tight binding. Conditions: protein: recombinant; tags: N-terminal polyhistidine and DsRed monomer fusion (pET32a); label: CyDye5-dUTP incorporated in the synthesized complementary strand; 3' TTTTT single-stranded linker to array surface; dsDNA, one strand shown. The essentials:
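The binding signal is fluorescence intensity per array feature (arbitrary units). Readings came from an Axon 4000B scanner after a washed, 2% BSA-blocked, double-stranded custom Agilent array had been incubated for 1 h at 25 °C with 200 nM protein and 50 µM zinc acetate. The protein was a Ni–NTA-purified transcription factor fused N-terminally to polyhistidine and DsRed, expressed in E. coli BL21-CodonPlus.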
For the sequence “AAAATGGACGTGACATTTGCCTTGGGCGTCTTGTGTTTGTCGGAGTCACCTAGTGCAG”, the binding signal was 8080 fluorescence intensity (a.u.).
In the case of “CCCGCCGCCGCTGTCCTTGCAGCCGCCCGGCTTTGCCGGCCGGAGTCACCTAGTGCAG” it was 9080 fluorescence intensity (a.u.); in that of “TACATTCCCGTGTTTGTCTGCTCCGGCTCCACCCGAACTCCGGAGTCACCTAGTGCAG”, 9830 fluorescence intensity (a.u.); in that of “ACCACCCACGTCGGGAGCGCTAGTCGCCGTTCACATTCTCCGGAGTCACCTAGTGCAG”, 9170 fluorescence intensity (a.u.).
Next, “ATTGTGGTGAGGACATATCAATCTACTCCCTCCGTCCCAACGGAGTCACCTAGTGCAG”: 8770 fluorescence intensity (a.u.); “ATTTTAGGTTGCCTTGTATTCTCATTGTTCTCTATAGTAGCGGAGTCACCTAGTGCAG”: 8570 fluorescence intensity (a.u.); “TTTGCTAATGACGGGCTTAATAAATTCGTCTCACAGTTTACGGAGTCACCTAGTGCAG”: 8170 fluorescence intensity (a.u.).
Next, “TCTCTCTCTCACTCAGCAACAGCTCGCAGCTCACTCTCTCCGGAGTCACCTAGTGCAG”: 8590 fluorescence intensity (a.u.).
For the sequence “CCTTTCTTTATTACTCCGTCAACGTACGATTCCTTGAACTCGGAGTCACCTAGTGCAG”, the binding signal is 10400 fluorescence intensity (a.u.).
In the case of “CAACGACGGCGGGGAGGGGAGGGCGAACGGGGTAGACGCCCGGAGTCACCTAGTGCAG” it was 8980 fluorescence intensity (a.u.); in that of “GCCGTTGACTTTTTAACACATGTTTGACCATTCGTCTTATCGGAGTCACCTAGTGCAG”, 60200 fluorescence intensity (a.u.).
In the case of “GCAATAATTCACCAAGAATCGCACCACTTTTCACCTTTTCCGGAGTCACCTAGTGCAG” it was 9980 fluorescence intensity (a.u.); in that of “TCACATTTCATCATCCTCCTCCTGCTCGCACATTTCTTTCCGGAGTCACCTAGTGCAG”, 8060 fluorescence intensity (a.u.); in that of “GTGAGACTTTTCTCCCTTGTTTGCTTCGCCTCGGCCCCTTCGGAGTCACCTAGTGCAG”, 9250 fluorescence intensity (a.u.).
As to “AGGGGTCTTCTTTATCTTAGGCATTTCTTTTTTCCCATGGCGGAGTCACCTAGTGCAG”, the binding signal is 10800 fluorescence intensity (a.u.).
Next, “CTCTCTCTCACACGGCCTCATCCATCCATCCCCACCTGAGCGGAGTCACCTAGTGCAG”: 12900 fluorescence intensity (a.u.); “TTGATGCCTTTGCCTGGTACTTTTTCTTGTGCTCTATCCACGGAGTCACCTAGTGCAG”: 11800 fluorescence intensity (a.u.).
Next, “TATGCGTGTAAAAAATGAGGGAGCGGGGTTGGAAATAAGGCGGAGTCACCTAGTGCAG”: 9270 fluorescence intensity (a.u.).
For the sequence “TGGTCGTCGTCGTCTTGGTCACTTGGTCTCCATCTCCTCTCGGAGTCACCTAGTGCAG”, the binding signal was 10300 fluorescence intensity (a.u.).
In the case of “CTCGGTTTCTTTGCCAAAAATCGCTGAGGGGCGCGTCCCCCGGAGTCACCTAGTGCAG”, the binding signal was 8600 fluorescence intensity (a.u.).
Take “GTGTCCCCTCTCCTCTTAGGGGTCTTGTATTTATACCCATCGGAGTCACCTAGTGCAG”: the binding signal is 8150 fluorescence intensity (a.u.).
Take “GCTAGCTCACTCACTCTACCTCGCTAGCGATCTACTCGATCGGAGTCACCTAGTGCAG”: the binding signal was 9680 fluorescence intensity (a.u.).
In the case of “AGAGATCGCCTCCGCCTCGCACCCGCCGGCGCCGGCGCCGCGGAGTCACCTAGTGCAG” it was 8370 fluorescence intensity (a.u.).
In the case of “ACATACTCCGATCTTACTCCCTAGCTTGCAGAATTATTCTCGGAGTCACCTAGTGCAG” it was 10400 fluorescence intensity (a.u.); in that of “TCGTTCATGAATGCTCTCCGTTGTGTGTGTGTATCCCCTGCGGAGTCACCTAGTGCAG”, 8800 fluorescence intensity (a.u.); in that of “TCGTCGAAGTTGTTGTACCTAGGGTGGGAGGAGTAGTGGCCGGAGTCACCTAGTGCAG”, 8140 fluorescence intensity (a.u.).
Next, “TCTAATCCATTGCCTCGTTTTTATCTATAGACTATCTCTACGGAGTCACCTAGTGCAG”: 10500 fluorescence intensity (a.u.); “CTTTTCTTTTTCTTCTTTTTTTTTATTATATACTAATAATCGGAGTCACCTAGTGCAG”: 9100 fluorescence intensity (a.u.); “TCGCCGCTCGCTGGGCCTGTGTCGTCGTCGTTGTTCGCTTCGGAGTCACCTAGTGCAG”: 10100 fluorescence intensity (a.u.).
“TCATATTCAGCCCTAGGTTTATGTTGAGTTGGTCTTATCGCGGAGTCACCTAGTGCAG”: the binding signal was 8730 fluorescence intensity (a.u.).
Next, “CATGCCTTTTGTTTGTTCCATTTGGGCTATTATGTCGTCACGGAGTCACCTAGTGCAG”: 13900 fluorescence intensity (a.u.); “CGGATCGCTGAATCTTGCTGGTGGTGGTGGTGGTGGTGGTCGGAGTCACCTAGTGCAG”: 13800 fluorescence intensity (a.u.); “CATTCGAACTTCAAGATTTGTCTGTTTAACTACTTTAAAACGGAGTCACCTAGTGCAG”: 9010 fluorescence intensity (a.u.).
Next, “CTTCCAGGCAGTTGTTCTGTATCCTCTTCTTGTTGCAACACGGAGTCACCTAGTGCAG”: 8920 fluorescence intensity (a.u.); “CTCTGTTGGCTGCCCATGTCCTTTTATGGACCCTTTTATGCGGAGTCACCTAGTGCAG”: 10900 fluorescence intensity (a.u.); “AAAATATGTTAGTGTAGCTACATCCTAGTTACATTCCACTCGGAGTCACCTAGTGCAG”: 9830 fluorescence intensity (a.u.).
Next, “AACGCGTGTATTTCTATGCTTTTGATATTGATCTTGCATCCGGAGTCACCTAGTGCAG”: 8230 fluorescence intensity (a.u.); “ATCCGTCCTAAAATACTTGTCGTTTTGAGTTTTTCTTTCTCGGAGTCACCTAGTGCAG”: 10700 fluorescence intensity (a.u.).
Take “TACGGGTTAGGGTTTGGGGTTGGGGTCAAGGTAGGAGGGGCGGAGTCACCTAGTGCAG”: the binding signal is 22500 fluorescence intensity (a.u.).
Next, “TCTGGACTTGTGATTTCTTGACATGTTCGTTTTTCTATTTCGGAGTCACCTAGTGCAG”: 9960 fluorescence intensity (a.u.).
For the sequence “GTACACATTTTCGTCTTCATTTCTCGATAACATTCTAACACGGAGTCACCTAGTGCAG”, the binding signal is 8100 fluorescence intensity (a.u.).
In the case of “CTCTTTTTTTTTTGGTGTTTTAATAAGCACAACACATATACGGAGTCACCTAGTGCAG”, the binding signal is 8150 fluorescence intensity (a.u.).
